Reference: paper PMC7819943, “Rice protein-binding microarrays: a tool to detect cis-acting elements near promoter regions in rice”
This is one part of the list.

Sequences of proteins named here, by UniProt entry; tags and fusion partners are left off.
UniProt Q0JBA9, entry or part of it: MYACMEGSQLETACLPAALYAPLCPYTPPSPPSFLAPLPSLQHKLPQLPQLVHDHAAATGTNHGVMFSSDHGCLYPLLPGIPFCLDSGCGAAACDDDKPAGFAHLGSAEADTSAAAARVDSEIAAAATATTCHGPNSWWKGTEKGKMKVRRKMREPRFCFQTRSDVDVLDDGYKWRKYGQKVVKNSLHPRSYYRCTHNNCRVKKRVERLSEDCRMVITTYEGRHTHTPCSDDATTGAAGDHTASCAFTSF

What follows are sequences tested against OsWRKY34 (Oryza sativa, UniProt Q0JBA9 1-250) (assay: protein-binding microarray (RPBM); PBS, 2% BSA, 51.3 ng/ul salmon testes DNA, 50 uM zinc acetate, 200 nM TF, 25 C, 1 h; high values mean tight binding). Details: protein: recombinant; tags: N-terminal polyhistidine and DsRed monomer fusion (pET32a); label: CyDye5-dUTP incorporated in the synthesized complementary strand; 3' TTTTT single-stranded linker to array surface; dsDNA, one strand shown.
Procedure, shortened: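 The binding signal is fluorescence intensity per feature, in arbitrary units, read on an Axon 4000B scanner. Polyhistidine- and DsRed-tagged transcription factors (N-terminal fusions) from E. coli BL21-CodonPlus were purified on Ni–NTA and applied at 200 nM for 1 h at 25 °C to a double-stranded, BSA-blocked custom Agilent array in buffer with 50 µM zinc acetate.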

Sequence | binding signal
CTTTTTCTTCAAACTTTCAACTTTTCTGTCACATCGTTTCCGGAGTCACCTAGTGCAG | 9250 fluorescence intensity (a.u.)
AATTCTACCTTTCTTTTGTCTAAGTACAATTATCTTTTTCCGGAGTCACCTAGTGCAG | 11000 fluorescence intensity (a.u.)
TTATCTGGCATGAACAGGAAGGGTTCACTGTTGTATTTTACGGAGTCACCTAGTGCAG | 8850 fluorescence intensity (a.u.)
ACAACAGGAATCCACCGTGACTTGCTTCACCACCACCCTGCGGAGTCACCTAGTGCAG | 8780 fluorescence intensity (a.u.)
AGTACATAACATACCTTCATCTTTCGACCAGCTCATCTTTCGGAGTCACCTAGTGCAG | 10600 fluorescence intensity (a.u.)
CTCATCCCGTTTCACCATTTTGTTTCACCATTACAGTAGGCGGAGTCACCTAGTGCAG | 11900 fluorescence intensity (a.u.)
GATTTGGAGGAACTAGAGCTCGGCACACTGATTGGCTACCCGGAGTCACCTAGTGCAG | 8410 fluorescence intensity (a.u.)
GAGTCGTTCGCGCCGTTCGGCCAGGTCATCGCCGCCACACCGGAGTCACCTAGTGCAG | 8220 fluorescence intensity (a.u.)
CCTGGCGTATCCTTCCTCGATGCTCCAACAACCACCGCACCGGAGTCACCTAGTGCAG | 8470 fluorescence intensity (a.u.)
TTCCCGCTCGCCGTCGTTCCAGTCCAAGCTCCCCGCCACCCGGAGTCACCTAGTGCAG | 10300 fluorescence intensity (a.u.)
GTGAGACTTGTGGCAAGTATTATTCTTCTTGTGTCTTCATCGGAGTCACCTAGTGCAG | 8280 fluorescence intensity (a.u.)
ATCACAACATCGTAATTCAATTAATTGGTGGTCGTATTATCGGAGTCACCTAGTGCAG | 8160 fluorescence intensity (a.u.)
TGCGTTTCTGAACTTTGACTGATCAAGGTTCATTCACTTTCGGAGTCACCTAGTGCAG | 8790 fluorescence intensity (a.u.)
TTGCCGCTGGGCTGGTTGGTGTATTGTGTGGTGAGCATTGCGGAGTCACCTAGTGCAG | 8480 fluorescence intensity (a.u.)
TCGAGGATAACTTTTATTTTCGCTAAATTTTTTTTGTTTTCGGAGTCACCTAGTGCAG | 8220 fluorescence intensity (a.u.)
ACTGGATCTTCACTTGCACAGCTGCATTATCTCCTCTCTTCGGAGTCACCTAGTGCAG | 9860 fluorescence intensity (a.u.)
TCGCGCCATACCCTTCTCCTTTGCCGTTCTGATAGCCACACGGAGTCACCTAGTGCAG | 8060 fluorescence intensity (a.u.)
CACCCACAGCGCCATCCACACGACATCCTTTATCTTATCCCGGAGTCACCTAGTGCAG | 12400 fluorescence intensity (a.u.)
TTCTCCCATTTTTAGGTGCGGTCCCATTTTTAGGCATTTTCGGAGTCACCTAGTGCAG | 14800 fluorescence intensity (a.u.)
ATTCCTCATATCCGTTTCCTGCGAATAGAAGCGCCTTCATCGGAGTCACCTAGTGCAG | 8710 fluorescence intensity (a.u.)
TTTGTCTTGTACAACTAGTTATACCTTTTACTATTTTCATCGGAGTCACCTAGTGCAG | 8740 fluorescence intensity (a.u.)

Reformatted: results already given
Sequence	binding signal
ACAACAGGAATCCACCGTGACTTGCTTCACCACCACCCTGCGGAGTCACCTAGTGCAG	8780 fluorescence intensity (a.u.)
AGTACATAACATACCTTCATCTTTCGACCAGCTCATCTTTCGGAGTCACCTAGTGCAG	10600 fluorescence intensity (a.u.)
GAGTCGTTCGCGCCGTTCGGCCAGGTCATCGCCGCCACACCGGAGTCACCTAGTGCAG	8220 fluorescence intensity (a.u.)
CCTGGCGTATCCTTCCTCGATGCTCCAACAACCACCGCACCGGAGTCACCTAGTGCAG	8470 fluorescence intensity (a.u.)
ATCACAACATCGTAATTCAATTAATTGGTGGTCGTATTATCGGAGTCACCTAGTGCAG	8160 fluorescence intensity (a.u.)
TGCGTTTCTGAACTTTGACTGATCAAGGTTCATTCACTTTCGGAGTCACCTAGTGCAG	8790 fluorescence intensity (a.u.)
TTGCCGCTGGGCTGGTTGGTGTATTGTGTGGTGAGCATTGCGGAGTCACCTAGTGCAG	8480 fluorescence intensity (a.u.)
TCGCGCCATACCCTTCTCCTTTGCCGTTCTGATAGCCACACGGAGTCACCTAGTGCAG	8060 fluorescence intensity (a.u.)
CACCCACAGCGCCATCCACACGACATCCTTTATCTTATCCCGGAGTCACCTAGTGCAG	12400 fluorescence intensity (a.u.)
TTCTCCCATTTTTAGGTGCGGTCCCATTTTTAGGCATTTTCGGAGTCACCTAGTGCAG	14800 fluorescence intensity (a.u.)

Next results follow.

Sequence | binding signal
CCGTATTTTAATGTATATGACACCGTTGACTTTTTGACCACGGAGTCACCTAGTGCAG | 40800 fluorescence intensity (a.u.)
CCGGCACCCCGCGCGCCCGCCCGTCGCCCGTCGCGCCATGCGGAGTCACCTAGTGCAG | 9360 fluorescence intensity (a.u.)
TCCTGGAGGTTTGGGTTGTGATGGGAAGAAAGGGAACTGACGGAGTCACCTAGTGCAG | 8550 fluorescence intensity (a.u.)
CTGGCGCGATTTTCTTTTGTTCGTTCCTTTTATTTTCGCACGGAGTCACCTAGTGCAG | 10100 fluorescence intensity (a.u.)
AGACATTTTTCTTTCTCGTGGATATTTACGCCTTTCTTGACGGAGTCACCTAGTGCAG | 8790 fluorescence intensity (a.u.)
ACCATGCCACCGGACCTCCTTGCCCTTAGCTGCTTCCTCGCGGAGTCACCTAGTGCAG | 8890 fluorescence intensity (a.u.)
TCCGCGGCTATCTCCCCGTACCGCTGCTCCACCTGCGCCGCGGAGTCACCTAGTGCAG | 8960 fluorescence intensity (a.u.)
CTGGATCTCCTCTCTCTCTCTCTCTCTCTGTCCTTCTTCTCGGAGTCACCTAGTGCAG | 10800 fluorescence intensity (a.u.)
ACCTCCACCACCCGCCGCCGCCGCCGCCGCCGCCGCCATGCGGAGTCACCTAGTGCAG | 8120 fluorescence intensity (a.u.)
CGCTCGCAATCGCTGCTCCGTTCGCCGCCTCACATCCATGCGGAGTCACCTAGTGCAG | 9230 fluorescence intensity (a.u.)
GGTCCATGGTAATGGTGTAGTCGTGGTGGTTTTGTTTCTCCGGAGTCACCTAGTGCAG | 8460 fluorescence intensity (a.u.)
AGTCTAAGGCAAAAGACAACTATATTCCGCGCTCTACCTTCGGAGTCACCTAGTGCAG | 8100 fluorescence intensity (a.u.)
TTAGGGTGAAATTTATTGTGGGAATTCATTTGGATATTTTCGGAGTCACCTAGTGCAG | 8580 fluorescence intensity (a.u.)
GCCCATGTATAGTTCATTATTTTAGGCTTTGAACTTTATACGGAGTCACCTAGTGCAG | 10600 fluorescence intensity (a.u.)
TTCACACCGTCGTATTTGCCACTTTACTGACGCTCGAAGCCGGAGTCACCTAGTGCAG | 8060 fluorescence intensity (a.u.)
CACCCATCGCCGACGACCCACGCACGCAGTCCACCAACGCCGGAGTCACCTAGTGCAG | 8130 fluorescence intensity (a.u.)
AGCGCACATATATATATTTTTTACTCTCTTTAGTCACAAACGGAGTCACCTAGTGCAG | 9240 fluorescence intensity (a.u.)
TGGATGGATATACTCGCTCTCGACCGCGCGCCAAAAAAAACGGAGTCACCTAGTGCAG | 8300 fluorescence intensity (a.u.)
ATTTGATGAATCTGTATATTAAATTGTCAATTTGTGTACCCGGAGTCACCTAGTGCAG | 8550 fluorescence intensity (a.u.)
AAACCAGTACAACTGCCATTCTTTACCGTTCCCTTTGCCCCGGAGTCACCTAGTGCAG | 9420 fluorescence intensity (a.u.)
CTTCTTCTTGTCCTGCGCAACCGATGGGCGGGTTCTTGATCGGAGTCACCTAGTGCAG | 18800 fluorescence intensity (a.u.)
